Reference: PubChem BioAssay AID743121 (NCATS, 2013)
This is a random part of about 26,000 reagents tested. In the full data, 167 (0.63%) got an active call. 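Calls are per gene from RSA p-values that are not deposited; an individual active-marked siRNA can sensitise only weakly.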 Reagents against one gene are numbered here. Further read-outs or replicates are left out here.

Aim: 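Genes whose silencing strengthens cell killing by camptothecin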 (primary screen)
Cell system: MDA-MB-231 cells, a human breast cancer line
Reagents: single siRNA against human genes, 20 nM siRNA (0.8 pmol per well)
Duration: 120 h (drug added 48 h after transfection, read 72 h later)
Treatment: camptothecin 20 nM (about EC30) for 72 h; vehicle 0.1% DMSO in parallel plates
Detection: 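Cell viability by ATP luminescence (CellTiter-Glo) as % of non-targeting siRNA wells, and the log2 ratio of viability without drug over viability with camptothecin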
Scale: log2 vehicle/camptothecin viability: higher = stronger sensitisation to camptothecin
Call rule: 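Active genes have an RSA gene-level p-value below 0.001, computed from the ratios of their separate siRNAs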

{"gene knocked down": "GABBR1 (gamma-aminobutyric acid type B receptor subunit 1)", "siRNA no.": 1, "log2 vehicle/camptothecin viability": 0.321, "activity call": "inactive"}
{"gene knocked down": "GABBR1 (gamma-aminobutyric acid type B receptor subunit 1)", "siRNA no.": 2, "log2 vehicle/camptothecin viability": 0.0029, "activity call": "inactive"}
{"gene knocked down": "GABBR1 (gamma-aminobutyric acid type B receptor subunit 1)", "siRNA no.": 3, "log2 vehicle/camptothecin viability": 0.662, "activity call": "inactive"}
{"gene knocked down": "GABBR1 (gamma-aminobutyric acid type B receptor subunit 1)", "siRNA no.": 4, "log2 vehicle/camptothecin viability": -0.0716, "activity call": "inactive"}
{"gene knocked down": "CFB (complement factor B)", "siRNA no.": 1, "log2 vehicle/camptothecin viability": -0.0731, "activity call": "inactive"}
{"gene knocked down": "CFB (complement factor B)", "siRNA no.": 2, "log2 vehicle/camptothecin viability": 0.362, "activity call": "inactive"}
{"gene knocked down": "CFB (complement factor B)", "siRNA no.": 3, "log2 vehicle/camptothecin viability": -0.21, "activity call": "inactive"}
{"gene knocked down": "CFB (complement factor B)", "siRNA no.": 4, "log2 vehicle/camptothecin viability": 0.038, "activity call": "inactive"}
{"gene knocked down": "KIFC3 (kinesin family member C3)", "siRNA no.": 1, "log2 vehicle/camptothecin viability": -0.426, "activity call": "inactive"}
{"gene knocked down": "KIFC3 (kinesin family member C3)", "siRNA no.": 2, "log2 vehicle/camptothecin viability": 1.41, "activity call": "inactive"}
{"gene knocked down": "KIFC3 (kinesin family member C3)", "siRNA no.": 3, "log2 vehicle/camptothecin viability": -0.466, "activity call": "inactive"}
{"gene knocked down": "KIFC3 (kinesin family member C3)", "siRNA no.": 4, "log2 vehicle/camptothecin viability": 0.176, "activity call": "inactive"}
{"gene knocked down": "GALR3 (galanin receptor 3)", "siRNA no.": 1, "log2 vehicle/camptothecin viability": -0.479, "activity call": "inactive"}
{"gene knocked down": "GALR3 (galanin receptor 3)", "siRNA no.": 2, "log2 vehicle/camptothecin viability": -0.35, "activity call": "inactive"}
{"gene knocked down": "GALR3 (galanin receptor 3)", "siRNA no.": 3, "log2 vehicle/camptothecin viability": -0.288, "activity call": "inactive"}
{"gene knocked down": "GALR3 (galanin receptor 3)", "siRNA no.": 4, "log2 vehicle/camptothecin viability": -0.299, "activity call": "inactive"}
{"gene knocked down": "SRMS", "siRNA no.": 1, "log2 vehicle/camptothecin viability": -0.249, "activity call": "inactive"}
{"gene knocked down": "SRMS", "siRNA no.": 2, "log2 vehicle/camptothecin viability": 0.928, "activity call": "inactive"}
{"gene knocked down": "SRMS", "siRNA no.": 3, "log2 vehicle/camptothecin viability": -0.461, "activity call": "inactive"}
{"gene knocked down": "SRMS", "siRNA no.": 4, "log2 vehicle/camptothecin viability": -0.462, "activity call": "inactive"}
{"gene knocked down": "VPREB1 (V-set pre-B cell surrogate light chain 1)", "siRNA no.": 1, "log2 vehicle/camptothecin viability": -0.0157, "activity call": "inactive"}
{"gene knocked down": "VPREB1 (V-set pre-B cell surrogate light chain 1)", "siRNA no.": 2, "log2 vehicle/camptothecin viability": -0.37, "activity call": "inactive"}
{"gene knocked down": "VPREB1 (V-set pre-B cell surrogate light chain 1)", "siRNA no.": 3, "log2 vehicle/camptothecin viability": 0.107, "activity call": "inactive"}
{"gene knocked down": "VPREB1 (V-set pre-B cell surrogate light chain 1)", "siRNA no.": 4, "log2 vehicle/camptothecin viability": -0.299, "activity call": "inactive"}
{"gene knocked down": "ATRNL1 (attractin like 1)", "siRNA no.": 1, "log2 vehicle/camptothecin viability": 0.111, "activity call": "inactive"}
{"gene knocked down": "ATRNL1 (attractin like 1)", "siRNA no.": 2, "log2 vehicle/camptothecin viability": -0.508, "activity call": "inactive"}
{"gene knocked down": "ATRNL1 (attractin like 1)", "siRNA no.": 3, "log2 vehicle/camptothecin viability": -0.679, "activity call": "inactive"}
{"gene knocked down": "TRIM22 (tripartite motif containing 22)", "siRNA no.": 1, "log2 vehicle/camptothecin viability": -0.21, "activity call": "inactive"}
{"gene knocked down": "TRIM22 (tripartite motif containing 22)", "siRNA no.": 2, "log2 vehicle/camptothecin viability": -0.132, "activity call": "inactive"}
{"gene knocked down": "TRIM22 (tripartite motif containing 22)", "siRNA no.": 3, "log2 vehicle/camptothecin viability": -0.985, "activity call": "inactive"}
{"gene knocked down": "TRIM22 (tripartite motif containing 22)", "siRNA no.": 4, "log2 vehicle/camptothecin viability": -0.102, "activity call": "inactive"}
{"gene knocked down": "TNFRSF1A (TNF receptor superfamily member 1A)", "siRNA no.": 1, "log2 vehicle/camptothecin viability": -0.525, "activity call": "inactive"}
{"gene knocked down": "TNFRSF1A (TNF receptor superfamily member 1A)", "siRNA no.": 2, "log2 vehicle/camptothecin viability": 0.0127, "activity call": "inactive"}
{"gene knocked down": "TNFRSF1A (TNF receptor superfamily member 1A)", "siRNA no.": 3, "log2 vehicle/camptothecin viability": -0.0764, "activity call": "inactive"}
{"gene knocked down": "GRM8 (glutamate metabotropic receptor 8)", "siRNA no.": 1, "log2 vehicle/camptothecin viability": -0.151, "activity call": "inactive"}
{"gene knocked down": "GRM8 (glutamate metabotropic receptor 8)", "siRNA no.": 2, "log2 vehicle/camptothecin viability": -0.267, "activity call": "inactive"}
{"gene knocked down": "GRM8 (glutamate metabotropic receptor 8)", "siRNA no.": 3, "log2 vehicle/camptothecin viability": -0.504, "activity call": "inactive"}
{"gene knocked down": "GRM8 (glutamate metabotropic receptor 8)", "siRNA no.": 4, "log2 vehicle/camptothecin viability": -0.0345, "activity call": "inactive"}
{"gene knocked down": "KCNAB3", "siRNA no.": 1, "log2 vehicle/camptothecin viability": -0.0295, "activity call": "inactive"}
{"gene knocked down": "KCNAB3", "siRNA no.": 2, "log2 vehicle/camptothecin viability": -0.22, "activity call": "inactive"}
{"gene knocked down": "KCNAB3", "siRNA no.": 3, "log2 vehicle/camptothecin viability": 0.227, "activity call": "inactive"}
{"gene knocked down": "KCNAB3", "siRNA no.": 4, "log2 vehicle/camptothecin viability": -0.0643, "activity call": "inactive"}
{"gene knocked down": "ELAC2 (elaC ribonuclease Z 2)", "siRNA no.": 1, "log2 vehicle/camptothecin viability": -0.173, "activity call": "inactive"}
{"gene knocked down": "ELAC2 (elaC ribonuclease Z 2)", "siRNA no.": 2, "log2 vehicle/camptothecin viability": -0.141, "activity call": "inactive"}
{"gene knocked down": "ELAC2 (elaC ribonuclease Z 2)", "siRNA no.": 3, "log2 vehicle/camptothecin viability": -0.581, "activity call": "inactive"}
{"gene knocked down": "ELAC2 (elaC ribonuclease Z 2)", "siRNA no.": 4, "log2 vehicle/camptothecin viability": -0.614, "activity call": "inactive"}

Copied from the listing, 4 entries:
{"gene knocked down": "KIFC3 (kinesin family member C3)", "siRNA no.": 2, "log2 vehicle/camptothecin viability": 1.41, "activity call": "inactive"}
{"gene knocked down": "KIFC3 (kinesin family member C3)", "siRNA no.": 3, "log2 vehicle/camptothecin viability": -0.466, "activity call": "inactive"}
{"gene knocked down": "KIFC3 (kinesin family member C3)", "siRNA no.": 4, "log2 vehicle/camptothecin viability": 0.176, "activity call": "inactive"}
{"gene knocked down": "GALR3 (galanin receptor 3)", "siRNA no.": 1, "log2 vehicle/camptothecin viability": -0.479, "activity call": "inactive"}
